Measured values from article PMC6430831.
Results are given in words; binding and its absence hold for the method and conditions named. Binding seen in cells or lysates may run through a third protein. Some binding calls cover weakened binding; strength is not graded here. For some assays here: Tags and fused reporters may be left off the sequences shown.

Protein sequences, listed by entry. Tags and fused reporters are not part of them.
UniProt P56477: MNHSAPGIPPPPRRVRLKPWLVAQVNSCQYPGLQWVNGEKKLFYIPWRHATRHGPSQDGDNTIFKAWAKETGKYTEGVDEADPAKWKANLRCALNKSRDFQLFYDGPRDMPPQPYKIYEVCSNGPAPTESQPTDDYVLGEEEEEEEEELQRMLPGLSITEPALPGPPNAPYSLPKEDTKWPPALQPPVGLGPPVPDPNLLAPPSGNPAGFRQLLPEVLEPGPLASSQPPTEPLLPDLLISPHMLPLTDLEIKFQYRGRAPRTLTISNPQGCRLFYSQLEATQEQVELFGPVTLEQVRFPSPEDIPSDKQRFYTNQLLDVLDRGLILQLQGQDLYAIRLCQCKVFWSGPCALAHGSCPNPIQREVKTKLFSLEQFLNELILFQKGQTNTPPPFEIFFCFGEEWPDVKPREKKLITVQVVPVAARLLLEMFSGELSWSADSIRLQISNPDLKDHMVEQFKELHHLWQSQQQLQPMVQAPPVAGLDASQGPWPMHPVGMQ
UniProt O43353: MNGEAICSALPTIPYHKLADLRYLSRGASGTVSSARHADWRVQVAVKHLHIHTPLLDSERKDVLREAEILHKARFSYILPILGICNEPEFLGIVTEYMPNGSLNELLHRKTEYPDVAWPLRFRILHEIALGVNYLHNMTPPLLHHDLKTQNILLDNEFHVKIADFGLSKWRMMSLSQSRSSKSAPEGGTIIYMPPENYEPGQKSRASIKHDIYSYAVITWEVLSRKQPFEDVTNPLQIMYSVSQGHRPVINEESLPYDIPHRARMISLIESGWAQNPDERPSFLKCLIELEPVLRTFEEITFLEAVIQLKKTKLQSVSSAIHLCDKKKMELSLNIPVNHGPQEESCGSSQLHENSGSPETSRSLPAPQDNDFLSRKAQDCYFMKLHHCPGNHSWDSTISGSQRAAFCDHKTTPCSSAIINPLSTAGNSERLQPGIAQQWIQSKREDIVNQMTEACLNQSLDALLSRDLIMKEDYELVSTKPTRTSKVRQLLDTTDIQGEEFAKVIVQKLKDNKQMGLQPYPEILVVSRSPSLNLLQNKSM
UniProt Q13568: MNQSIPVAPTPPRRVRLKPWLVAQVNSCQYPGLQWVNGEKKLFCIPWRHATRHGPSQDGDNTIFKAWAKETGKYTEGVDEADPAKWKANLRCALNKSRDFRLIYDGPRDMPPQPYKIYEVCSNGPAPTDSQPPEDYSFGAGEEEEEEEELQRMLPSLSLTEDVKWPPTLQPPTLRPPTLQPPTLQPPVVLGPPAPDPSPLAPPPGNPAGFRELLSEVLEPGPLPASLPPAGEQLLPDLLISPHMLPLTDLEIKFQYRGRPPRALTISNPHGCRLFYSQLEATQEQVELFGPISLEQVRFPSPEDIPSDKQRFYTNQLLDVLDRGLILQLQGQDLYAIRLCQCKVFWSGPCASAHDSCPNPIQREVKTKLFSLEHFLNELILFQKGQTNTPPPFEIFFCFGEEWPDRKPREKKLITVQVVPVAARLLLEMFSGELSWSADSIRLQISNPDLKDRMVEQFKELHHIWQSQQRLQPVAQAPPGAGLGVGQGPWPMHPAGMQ

T1: FLAG-tagged GEF-H1 (Human pCMV6-Entry-GEF-H1), wild type (human) (UniProt Q92974)
T1 sequence: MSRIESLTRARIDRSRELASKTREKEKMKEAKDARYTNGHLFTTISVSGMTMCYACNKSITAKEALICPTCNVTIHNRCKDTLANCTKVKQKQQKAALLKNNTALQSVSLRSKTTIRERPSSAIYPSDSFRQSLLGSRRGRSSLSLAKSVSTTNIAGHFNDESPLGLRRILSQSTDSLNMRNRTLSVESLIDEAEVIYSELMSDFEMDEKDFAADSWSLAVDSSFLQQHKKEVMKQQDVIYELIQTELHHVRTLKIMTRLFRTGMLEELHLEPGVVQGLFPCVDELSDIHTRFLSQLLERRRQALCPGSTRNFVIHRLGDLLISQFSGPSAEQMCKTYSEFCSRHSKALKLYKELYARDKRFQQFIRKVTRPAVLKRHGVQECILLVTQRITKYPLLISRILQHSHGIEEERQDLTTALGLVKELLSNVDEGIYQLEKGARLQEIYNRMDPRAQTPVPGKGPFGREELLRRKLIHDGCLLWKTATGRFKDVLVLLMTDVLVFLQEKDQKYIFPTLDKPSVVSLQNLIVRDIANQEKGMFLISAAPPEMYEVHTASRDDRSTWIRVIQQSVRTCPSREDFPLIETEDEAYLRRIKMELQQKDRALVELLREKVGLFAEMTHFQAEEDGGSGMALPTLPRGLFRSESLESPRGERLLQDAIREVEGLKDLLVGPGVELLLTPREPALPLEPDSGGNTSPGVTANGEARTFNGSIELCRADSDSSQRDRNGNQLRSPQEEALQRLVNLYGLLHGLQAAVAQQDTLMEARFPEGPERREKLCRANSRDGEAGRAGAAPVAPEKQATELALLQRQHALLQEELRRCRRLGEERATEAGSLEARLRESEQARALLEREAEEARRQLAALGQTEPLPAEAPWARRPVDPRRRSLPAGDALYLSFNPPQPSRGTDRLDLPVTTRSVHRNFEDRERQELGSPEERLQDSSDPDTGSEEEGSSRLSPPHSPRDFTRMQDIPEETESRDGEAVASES

T2: GEF-H1 (S886A) variant (human) (UniProt Q92974)
T2 sequence: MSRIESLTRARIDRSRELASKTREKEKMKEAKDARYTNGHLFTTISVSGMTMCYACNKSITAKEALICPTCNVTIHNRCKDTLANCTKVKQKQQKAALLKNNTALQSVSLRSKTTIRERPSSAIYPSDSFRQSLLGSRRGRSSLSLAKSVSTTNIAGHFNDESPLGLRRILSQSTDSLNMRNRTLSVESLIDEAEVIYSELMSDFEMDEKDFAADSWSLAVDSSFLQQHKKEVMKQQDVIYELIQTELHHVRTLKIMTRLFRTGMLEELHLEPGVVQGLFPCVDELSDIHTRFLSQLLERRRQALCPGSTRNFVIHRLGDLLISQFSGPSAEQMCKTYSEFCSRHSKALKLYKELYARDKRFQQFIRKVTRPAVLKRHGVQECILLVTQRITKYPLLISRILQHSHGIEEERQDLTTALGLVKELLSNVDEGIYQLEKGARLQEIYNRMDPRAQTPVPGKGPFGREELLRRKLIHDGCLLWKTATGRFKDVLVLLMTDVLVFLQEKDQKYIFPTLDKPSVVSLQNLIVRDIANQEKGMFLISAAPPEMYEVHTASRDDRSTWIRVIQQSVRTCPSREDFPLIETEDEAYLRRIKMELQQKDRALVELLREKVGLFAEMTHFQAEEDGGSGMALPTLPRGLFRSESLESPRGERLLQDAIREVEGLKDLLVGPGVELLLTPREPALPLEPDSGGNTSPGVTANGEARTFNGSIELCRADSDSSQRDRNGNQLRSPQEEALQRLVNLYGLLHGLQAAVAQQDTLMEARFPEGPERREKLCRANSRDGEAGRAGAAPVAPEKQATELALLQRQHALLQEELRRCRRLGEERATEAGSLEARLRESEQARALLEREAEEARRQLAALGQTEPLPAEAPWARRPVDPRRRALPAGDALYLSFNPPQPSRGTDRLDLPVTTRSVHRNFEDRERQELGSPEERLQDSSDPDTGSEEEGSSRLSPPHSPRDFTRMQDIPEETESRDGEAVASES

T3: GEF-H1 double-mutant S324A/S886A (human) (UniProt Q92974)
T3 sequence: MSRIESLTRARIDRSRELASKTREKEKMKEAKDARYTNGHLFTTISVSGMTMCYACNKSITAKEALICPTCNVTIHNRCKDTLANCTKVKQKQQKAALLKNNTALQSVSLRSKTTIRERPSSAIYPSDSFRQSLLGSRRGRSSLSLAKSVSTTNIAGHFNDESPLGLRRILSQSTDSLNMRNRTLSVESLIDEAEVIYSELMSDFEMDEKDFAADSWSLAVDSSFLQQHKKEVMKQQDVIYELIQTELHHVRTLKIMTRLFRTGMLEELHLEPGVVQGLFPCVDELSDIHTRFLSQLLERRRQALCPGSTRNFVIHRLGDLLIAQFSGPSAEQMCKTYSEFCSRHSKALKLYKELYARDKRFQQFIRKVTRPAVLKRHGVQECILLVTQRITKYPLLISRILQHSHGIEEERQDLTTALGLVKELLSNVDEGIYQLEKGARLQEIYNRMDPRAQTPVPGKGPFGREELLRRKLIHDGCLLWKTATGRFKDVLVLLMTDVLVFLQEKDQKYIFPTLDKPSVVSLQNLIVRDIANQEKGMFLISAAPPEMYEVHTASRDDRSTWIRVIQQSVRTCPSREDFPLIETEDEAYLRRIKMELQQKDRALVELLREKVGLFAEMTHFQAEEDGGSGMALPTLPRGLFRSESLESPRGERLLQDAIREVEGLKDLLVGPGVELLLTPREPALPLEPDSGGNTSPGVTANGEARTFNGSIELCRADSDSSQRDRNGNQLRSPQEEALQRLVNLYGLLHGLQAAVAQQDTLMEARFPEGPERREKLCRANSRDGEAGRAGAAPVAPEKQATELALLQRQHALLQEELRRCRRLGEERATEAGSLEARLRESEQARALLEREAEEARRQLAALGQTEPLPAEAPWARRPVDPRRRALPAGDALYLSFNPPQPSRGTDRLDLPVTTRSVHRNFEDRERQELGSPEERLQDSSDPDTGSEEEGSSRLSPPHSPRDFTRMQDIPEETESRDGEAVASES


What was measured:
[1] = molecular target: T1, FLAG-tagged GEF-H1 (Human pCMV6-Entry-GEF-H1), wild type (human); experiment: co-IP; HEK293T cells transfected with the indicated plasmids (GEF-H1 WT or variants with IRF5, IKKε, IKKβ; with or without RIPK2 or NOD2); precipitated with anti-GEF-H1, protein G agarose; lysis buffer 1% NP-40, 20 mM Tris-HCl pH 7.4, 150 mM NaCl; partners detected by western blot
[2] = molecular target: T2, GEF-H1 (S886A) variant (human); experiment: as above
[3] = molecular target: T3, GEF-H1 double-mutant S324A/S886A (human); experiment: as above
[4] = molecular target: interferon regulatory factor 5 (IRF5), mouse, endogenous (mouse (endogenous in BMDMs)) (UniProt P56477); experiment: co-IP; endogenous proteins in lysates of mouse BMDMs (WT, Arhgef2-/- as control), with or without N-glycolyl-MDP; precipitated with anti-IRF5 or control IgG, protein G agarose; lysis buffer 1% NP-40, 20 mM Tris-HCl pH 7.4, 150 mM NaCl; blot for GEF-H1

Molecule	binding [1]	binding [2]	binding [3]	binding [4]
human RIPK2 (pcDNA3-huRipK2-HA) (from UniProt O43353 1-540)	binds	–	–	–
human IRF5 (pcDNA3-huIRF5-GFP) (from UniProt Q13568 1-498)	binds	binds	binds	–
guanine nucleotide exchange factor-H1 (GEF-H1), mouse, endogenous (protein, UniProt Q60875 1-985) MSRIESLTRARIDRSKEQATKTREKEKMKEAKDARYTNGHLFTTISVSGMTMCYACNKSITAKEALICPTCNVTIHNRCKDTLANCTKVKQKQQKAALLRNNTALQSVSLRSKTTTRERPTSAIYPSDSFRQSLLGSRRGLSSLSLAKSVSTTNIAGHFNDESPLGLRQILSQSTDSLNMRNRTLSVESLIDEGVEVFYNELMSDFEMDEKDFEADSWSLAVDSSFLQQHKKEVMKKQDVIYELIQTELHHVRTLKIMTRLFRTGMLEELQMEPEVVQGLFPCVDELSDIHTRFLNQLLERRRQALCPGSTRNFVIHRLGDLLISQFSGSNAEQMRKTYSEFCSRHTKALKLYKELYARDKRFQQFIRKMTRSAVLKRHGVQECILLVTQRITKYPVLINRILQNSHGVEEEYQDLASALGLVKELLSNVDQDVHELEKEARLQEIYNRMDPRAQTPVPGKGPFGRDELLRRKLIHEGCLLWKTATGRFKDVLLLLMTDVLVFLQEKDQKYIFTSLDKPSVVSLQNLIVRDIANQAKGMFLISSGPPEMYEVHAASRDDRTTWIRVIQQSVRLCPSREDFPLIETEDKAYLRRIKTKLQQKNQALVELLQKNVELFAEMVHFQALKAGFVGMPPPALPRGLFRLESFESLRGERLLKDALREVEGLKDLLLGPCVDLPMTSREPALPLDSDSGSCPGVTANGEARTFNGSIELCRADSDSSQKDRNGNQLRSPQEEVLQPLINLYGLLHGLQAVVVQQERLMEALFPEGPERWEKLSRANSRDGEAGRAAVASVTPEKQATELALLQRQHTLLQEELRRCQRLGEERATEAGSLEARLRESEQARALLEREAEEIRRQLAALGQNEPLPAEAPWARRPLDPRRRSLPAGDALYLSFNPPQPSRGHDRLDLPVTVRSLHRPFDDREAQELGSPEDRLQDSSDPDTGSEEEVSSRLSPPHSPRDFTRMQDIPEETESRDGEPTASES	–	–	–	binds
